Structures can show the parent of a compound that is named as a salt. At least one structure is not confirmed: it was looked up by name or label, or the drawing left a doubt.
Target: 5-HT1 receptor
Assay: Interaction with serotonin receptors: 5-HT1 receptor, calf hippocampus, ligand 3H-serotonin
Type: binding
Conditions: ligand 3H-serotonin (Table 1), read-out: Inhibition constant K1
Description: Interaction with serotonin receptors
Inhibition constant K1 (nmol l^-1)
Ligand: ^3 H--serotonin
In generally similar manner there were prepared additional compounds which, when tested against 5-HT, receptors as in Example 7, gave the results shown in Table 2.

Row | SMILES | Ki [nM]
1 | C[C@@H]1CCC[C@H](C)N1CCc1c[nH]c2ccccc12 [Example 2, 3-[2-(Cis-2,6-dimethylpiperidinyl)ethyl]indole hydrochloride] | 150
2 | C[C@@H]1CCC[C@H](C)N1CCc1c[nH]c2ccc(Br)cc12 [Example 3, 3-[2-(Cis-2,6-dimethylpiperidinyl)ethyl]-5-bromoindole hydrochloride] | 50

— patent US4870085A, “Tryptamine derivatives active on central nervous system” (Bayer Aktiengesellschaft, priority 1984, dated 1989)
